Reference: PMC8291974
No constants are given. Whether binding was seen depends on the method and setting. Binding seen in cells or lysates may run through a third protein. Some binding calls cover weakened binding; strength is not graded here. Where a sequence is shown, tags or fusion partners need not be part of it.

Chains of the proteins cited; added tags and fusions are not shown.
UniProt E9Q777: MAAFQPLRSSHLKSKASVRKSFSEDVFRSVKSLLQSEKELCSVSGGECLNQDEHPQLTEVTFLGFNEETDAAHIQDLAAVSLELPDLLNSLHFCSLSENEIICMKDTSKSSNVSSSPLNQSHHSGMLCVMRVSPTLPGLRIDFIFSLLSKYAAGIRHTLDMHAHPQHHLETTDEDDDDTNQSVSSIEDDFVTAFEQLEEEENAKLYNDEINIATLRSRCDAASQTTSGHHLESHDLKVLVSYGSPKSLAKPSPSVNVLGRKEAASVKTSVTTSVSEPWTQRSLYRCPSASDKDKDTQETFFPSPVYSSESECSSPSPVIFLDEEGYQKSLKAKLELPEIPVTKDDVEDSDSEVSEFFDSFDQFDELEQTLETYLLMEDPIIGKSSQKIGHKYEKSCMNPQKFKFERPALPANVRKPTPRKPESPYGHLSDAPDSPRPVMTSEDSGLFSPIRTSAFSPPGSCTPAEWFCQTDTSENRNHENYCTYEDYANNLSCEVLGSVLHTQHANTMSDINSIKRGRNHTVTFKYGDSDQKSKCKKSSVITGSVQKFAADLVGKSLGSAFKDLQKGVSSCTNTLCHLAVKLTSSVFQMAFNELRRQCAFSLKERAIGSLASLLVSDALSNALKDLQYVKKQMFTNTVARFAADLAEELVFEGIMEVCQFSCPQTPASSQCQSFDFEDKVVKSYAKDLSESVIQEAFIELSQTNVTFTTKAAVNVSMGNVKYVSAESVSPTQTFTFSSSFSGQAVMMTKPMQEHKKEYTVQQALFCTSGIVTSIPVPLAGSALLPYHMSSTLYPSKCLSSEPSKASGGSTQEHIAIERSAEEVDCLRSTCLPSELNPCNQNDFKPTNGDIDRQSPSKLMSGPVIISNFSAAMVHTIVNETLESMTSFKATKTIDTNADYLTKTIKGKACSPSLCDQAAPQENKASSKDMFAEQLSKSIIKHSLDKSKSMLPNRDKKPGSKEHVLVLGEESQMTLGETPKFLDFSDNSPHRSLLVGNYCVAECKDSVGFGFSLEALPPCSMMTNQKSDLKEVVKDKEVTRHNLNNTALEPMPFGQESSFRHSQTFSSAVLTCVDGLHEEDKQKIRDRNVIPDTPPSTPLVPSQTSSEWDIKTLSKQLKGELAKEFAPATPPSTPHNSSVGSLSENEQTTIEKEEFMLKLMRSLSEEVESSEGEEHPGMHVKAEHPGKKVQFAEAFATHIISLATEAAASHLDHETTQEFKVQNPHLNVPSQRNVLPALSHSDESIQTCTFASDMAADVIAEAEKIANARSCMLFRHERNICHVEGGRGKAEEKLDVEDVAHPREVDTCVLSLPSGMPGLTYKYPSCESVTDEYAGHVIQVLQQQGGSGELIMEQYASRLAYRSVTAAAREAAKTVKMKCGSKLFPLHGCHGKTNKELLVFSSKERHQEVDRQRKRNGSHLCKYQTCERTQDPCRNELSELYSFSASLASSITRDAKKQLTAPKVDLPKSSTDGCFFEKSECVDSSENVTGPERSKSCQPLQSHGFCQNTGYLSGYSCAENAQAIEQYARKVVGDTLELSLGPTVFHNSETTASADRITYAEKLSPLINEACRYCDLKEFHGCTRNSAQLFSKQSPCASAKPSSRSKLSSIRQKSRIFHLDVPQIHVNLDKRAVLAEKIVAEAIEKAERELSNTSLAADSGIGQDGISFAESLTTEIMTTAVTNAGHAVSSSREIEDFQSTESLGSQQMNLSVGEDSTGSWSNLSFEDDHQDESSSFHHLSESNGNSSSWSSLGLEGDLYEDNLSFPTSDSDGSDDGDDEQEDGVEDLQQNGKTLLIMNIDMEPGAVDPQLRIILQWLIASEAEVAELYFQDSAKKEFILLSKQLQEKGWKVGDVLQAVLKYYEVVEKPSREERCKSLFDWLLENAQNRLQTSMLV

Target: T1, histone deacetylase 6 (HDAC6), endogenous in mIMCD3 cells (mouse (endogenous in mIMCD3)) (UniProt Q9Z2V5)
T1 sequence: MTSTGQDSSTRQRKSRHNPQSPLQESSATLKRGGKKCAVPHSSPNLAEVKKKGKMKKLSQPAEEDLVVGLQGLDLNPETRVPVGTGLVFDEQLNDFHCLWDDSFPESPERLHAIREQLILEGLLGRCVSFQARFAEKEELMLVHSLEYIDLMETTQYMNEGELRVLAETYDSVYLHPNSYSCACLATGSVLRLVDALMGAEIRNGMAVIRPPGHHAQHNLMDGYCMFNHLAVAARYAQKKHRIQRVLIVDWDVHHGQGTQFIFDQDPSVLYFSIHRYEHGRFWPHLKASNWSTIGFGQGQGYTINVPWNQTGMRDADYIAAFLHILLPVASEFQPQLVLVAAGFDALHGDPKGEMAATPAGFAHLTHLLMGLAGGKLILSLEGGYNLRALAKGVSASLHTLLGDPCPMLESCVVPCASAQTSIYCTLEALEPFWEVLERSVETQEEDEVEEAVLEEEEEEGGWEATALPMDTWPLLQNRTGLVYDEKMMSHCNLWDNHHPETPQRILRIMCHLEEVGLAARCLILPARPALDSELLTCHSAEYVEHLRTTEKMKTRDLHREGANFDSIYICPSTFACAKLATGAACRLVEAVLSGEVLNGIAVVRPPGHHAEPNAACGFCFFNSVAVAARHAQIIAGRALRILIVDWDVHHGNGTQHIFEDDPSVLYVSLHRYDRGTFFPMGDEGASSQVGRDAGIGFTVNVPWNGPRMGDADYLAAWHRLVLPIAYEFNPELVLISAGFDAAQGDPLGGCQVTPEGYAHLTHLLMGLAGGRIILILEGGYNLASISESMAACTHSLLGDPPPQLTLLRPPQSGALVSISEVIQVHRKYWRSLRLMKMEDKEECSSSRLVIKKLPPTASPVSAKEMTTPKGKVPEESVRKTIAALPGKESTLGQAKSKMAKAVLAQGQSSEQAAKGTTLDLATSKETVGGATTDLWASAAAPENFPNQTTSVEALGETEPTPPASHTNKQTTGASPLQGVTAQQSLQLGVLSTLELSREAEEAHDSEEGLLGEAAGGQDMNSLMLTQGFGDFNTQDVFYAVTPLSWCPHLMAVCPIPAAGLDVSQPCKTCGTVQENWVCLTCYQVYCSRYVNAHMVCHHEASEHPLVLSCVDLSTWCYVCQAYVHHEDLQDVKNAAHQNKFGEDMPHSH
Test: co-IP; immunoprecipitation of HDAC6 from wild-type or AKAP220-ΔPP1 mIMCD3 cell lysates, immunoblot for AKAP220

binding: binds
Substance: A-Kinase anchoring protein AKAP220 (wild type, endogenous in mIMCD3 cells) (from UniProt E9Q777 1-1894)
